# Assay results as given in the supplement of paper PMC8728848.
# The other results are listed elsewhere or left out.
# B1: Pbx2CASH domain (Cryptococcus neoformans) (protein)
# chain: GIPGPNRLYRLSGPIIFTAADQEIATYGYPTGSERAVLRVEGRNTATAIQGDCRRCARVSVKNLVVDGNRKKLGRMRDFQLATGLVVLGGNEGQSIQNSWIKNPRGFTAIHIREGDKLQCSGARVEKNEIGPVGEEYDPEKDGDDPEMSPLGRPLADGVSIACRDSFIRDNTFRDNTDAAIVVYCSPGTLIHA
# Assays:
# Assay in all cases: glycan array binding signal (z-score within array); higher = stronger binding
# Conditions in all cases: glycan notation: IUPAC condensed, linker removed
# [1] = target: Gal(b1-4)GlcNAc(b1-2)[Gal(b1-4)GlcNAc(b1-6)]Man(a1-6)[GlcNAc(b1-4)][Gal(b1-4)GlcNAc(b1-2)[Gal(b1-4)GlcNAc(b1-4)]Man(a1-3)]Man(b1-4)GlcNAc(b1-4)[Fuc(a1-6)]GlcNAc
# Summary of the method: (§1)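 The binding signal is a Z-score computed within each array. Data were drawn from 3228 arrays in the Consortium for Functional Glycomics database, restricted to those with a known protein sequence. Scores were averaged over arrays of the same protein sequence at different concentrations or buffers, and over linkers, and negative values can be taken as non-binding.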
# [2] = target: Gal(b1-4)GlcNAc(b1-3)Gal(b1-3)GalNAc
# Summary of the method: as §1
# [3] = target: Gal(b1-4)GlcNAc(b1-3)Gal(b1-3)GlcNAc
# Summary of the method: as §1
# [4] = target: Gal(b1-4)GlcNAc(b1-3)Gal(b1-4)Glc
# Summary of the method: as §1
# [5] = target: Gal(b1-4)GlcNAc(b1-3)Gal(b1-4)GlcNAc
# Summary of the method: as §1
# [6] = target: Gal(b1-4)GlcNAc(b1-3)Gal(b1-4)GlcNAc(b1-2)Man(a1-3)[Gal(b1-4)GlcNAc(b1-3)Gal(b1-4)GlcNAc(b1-2)Man(a1-6)]Man(b1-4)GlcNAc(b1-4)GlcNAc
# Summary of the method: as §1
# [7] = target: Gal(b1-4)GlcNAc(b1-3)Gal(b1-4)GlcNAc(b1-2)Man(a1-3)[Gal(b1-4)GlcNAc(b1-3)Gal(b1-4)GlcNAc(b1-2)Man(a1-6)]Man(b1-4)GlcNAc(b1-4)[Fuc(a1-6)]GlcNAc
# Summary of the method: as §1
# [8] = target: Gal(b1-4)GlcNAc(b1-3)Gal(b1-4)GlcNAc(b1-2)[Gal(b1-4)GlcNAc(b1-3)Gal(b1-4)GlcNAc(b1-6)]Man(a1-6)[Gal(b1-4)GlcNAc(b1-3)Gal(b1-4)GlcNAc(b1-2)Man(a1-3)]Man(b1-4)GlcNAc(b1-4)GlcNAc
# Summary of the method: as §1
# [9] = target: Gal(b1-4)GlcNAc(b1-3)Gal(b1-4)GlcNAc(b1-2)[Gal(b1-4)GlcNAc(b1-3)Gal(b1-4)GlcNAc(b1-6)]Man(a1-6)[Gal(b1-4)GlcNAc(b1-3)Gal(b1-4)GlcNAc(b1-2)Man(a1-3)]Man(b1-4)GlcNAc(b1-4)[Fuc(a1-6)]GlcNAc
# Summary of the method: as §1
# [10] = target: Gal(b1-4)GlcNAc(b1-3)Gal(b1-4)GlcNAc(b1-3)Gal(b1-4)GlcNAc
# Summary of the method: as §1
# [11] = target: Gal(b1-4)GlcNAc(b1-3)Gal(b1-4)GlcNAc(b1-3)Gal(b1-4)GlcNAc(b1-2)Man(a1-3)[Gal(b1-4)GlcNAc(b1-3)Gal(b1-4)GlcNAc(b1-3)Gal(b1-4)GlcNAc(b1-2)Man(a1-6)]Man(b1-4)GlcNAc(b1-4)GlcNAc
# Summary of the method: as §1
# [12] = target: Gal(b1-4)GlcNAc(b1-3)Gal(b1-4)GlcNAc(b1-3)Gal(b1-4)GlcNAc(b1-2)Man(a1-3)[Gal(b1-4)GlcNAc(b1-3)Gal(b1-4)GlcNAc(b1-3)Gal(b1-4)GlcNAc(b1-2)Man(a1-6)]Man(b1-4)GlcNAc(b1-4)[Fuc(a1-6)]GlcNAc
# Summary of the method: as §1
# [13] = target: Gal(b1-4)GlcNAc(b1-3)Gal(b1-4)GlcNAc(b1-3)Gal(b1-4)GlcNAc(b1-2)[Gal(b1-4)GlcNAc(b1-3)Gal(b1-4)GlcNAc(b1-3)Gal(b1-4)GlcNAc(b1-6)]Man(a1-6)[Gal(b1-4)GlcNAc(b1-3)Gal(b1-4)GlcNAc(b1-3)Gal(b1-4)GlcNAc(b1-2)Man(a1-3)]Man(b1-4)GlcNAc(b1-4)[Fuc(a1-6)]GlcNAc
# Summary of the method: as §1
# [14] = target: Gal(b1-4)GlcNAc(b1-3)Gal(b1-4)GlcNAc(b1-3)Gal(b1-4)GlcNAc(b1-3)Gal(b1-4)GlcNAc(b1-2)Man(a1-3)[Gal(b1-4)GlcNAc(b1-3)Gal(b1-4)GlcNAc(b1-3)Gal(b1-4)GlcNAc(b1-3)Gal(b1-4)GlcNAc(b1-2)Man(a1-6)]Man(b1-4)GlcNAc(b1-4)GlcNAc
# Summary of the method: as §1
# [15] = target: Gal(b1-4)GlcNAc(b1-3)Gal(b1-4)GlcNAc(b1-3)Gal(b1-4)GlcNAc(b1-3)Gal(b1-4)GlcNAc(b1-2)Man(a1-3)[Gal(b1-4)GlcNAc(b1-3)Gal(b1-4)GlcNAc(b1-3)Gal(b1-4)GlcNAc(b1-3)Gal(b1-4)GlcNAc(b1-2)Man(a1-6)]Man(b1-4)GlcNAc(b1-4)[Fuc(a1-6)]GlcNAc
# Summary of the method: as §1
# [16] = target: Gal(b1-4)GlcNAc(b1-3)Gal(b1-4)GlcNAc(b1-3)Gal(b1-4)GlcNAc(b1-3)Gal(b1-4)GlcNAc(b1-2)[Gal(b1-4)GlcNAc(b1-3)Gal(b1-4)GlcNAc(b1-3)Gal(b1-4)GlcNAc(b1-3)Gal(b1-4)GlcNAc(b1-6)]Man(a1-6)[Gal(b1-4)GlcNAc(b1-3)Gal(b1-4)GlcNAc(b1-3)Gal(b1-4)GlcNAc(b1-3)Gal(b1-4)GlcNAc(b1-2)Man(a1-3)]Man(b1-4)GlcNAc(b1-4)[Fuc(a1-6)]GlcNAc
# Summary of the method: as §1
# [17] = target: Gal(b1-4)GlcNAc(b1-3)Gal(b1-4)GlcNAc(b1-3)Gal(b1-4)GlcNAc(b1-3)Gal(b1-4)GlcNAc(b1-3)Gal(b1-4)GlcNAc(b1-2)Man(a1-3)[Gal(b1-4)GlcNAc(b1-3)Gal(b1-4)GlcNAc(b1-3)Gal(b1-4)GlcNAc(b1-3)Gal(b1-4)GlcNAc(b1-3)Gal(b1-4)GlcNAc(b1-2)Man(a1-6)]Man(b1-4)GlcNAc(b1-4)GlcNAc
# Summary of the method: as §1
# [18] = target: Gal(b1-4)GlcNAc(b1-3)Gal(b1-4)GlcNAc(b1-3)Gal(b1-4)GlcNAc(b1-3)Gal(b1-4)GlcNAc(b1-3)Gal(b1-4)GlcNAc(b1-2)Man(a1-3)[Gal(b1-4)GlcNAc(b1-3)Gal(b1-4)GlcNAc(b1-3)Gal(b1-4)GlcNAc(b1-3)Gal(b1-4)GlcNAc(b1-3)Gal(b1-4)GlcNAc(b1-2)Man(a1-6)]Man(b1-4)GlcNAc(b1-4)[Fuc(a1-6)]GlcNAc
# Summary of the method: as §1
# [19] = target: Gal(b1-4)GlcNAc(b1-3)Gal(b1-4)GlcNAc(b1-3)Gal(b1-4)GlcNAc(b1-3)Gal(b1-4)GlcNAc(b1-3)Gal(b1-4)GlcNAc(b1-2)[Gal(b1-4)GlcNAc(b1-3)Gal(b1-4)GlcNAc(b1-3)Gal(b1-4)GlcNAc(b1-3)Gal(b1-4)GlcNAc(b1-3)Gal(b1-4)GlcNAc(b1-6)]Man(a1-6)[Gal(b1-4)GlcNAc(b1-3)Gal(b1-4)GlcNAc(b1-3)Gal(b1-4)GlcNAc(b1-3)Gal(b1-4)GlcNAc(b1-3)Gal(b1-4)GlcNAc(b1-2)Man(a1-3)]Man(b1-4)GlcNAc(b1-4)[Fuc(a1-6)]GlcNAc
# Summary of the method: as §1
# [20] = target: Gal(b1-4)GlcNAc(b1-3)Gal(b1-4)GlcNAc(b1-3)Gal(b1-4)GlcNAc(b1-3)Gal(b1-4)GlcNAc(b1-3)Gal(b1-4)GlcNAc(b1-3)Gal(b1-4)GlcNAc(b1-2)Man(a1-3)[Gal(b1-4)GlcNAc(b1-3)Gal(b1-4)GlcNAc(b1-3)Gal(b1-4)GlcNAc(b1-3)Gal(b1-4)GlcNAc(b1-3)Gal(b1-4)GlcNAc(b1-3)Gal(b1-4)GlcNAc(b1-2)Man(a1-6)]Man(b1-4)GlcNAc(b1-4)GlcNAc
# Summary of the method: as §1
# [21] = target: Gal(b1-4)GlcNAc(b1-3)Gal(b1-4)GlcNAc(b1-3)GalNAc
# Summary of the method: as §1
# [22] = target: Gal(b1-4)GlcNAc(b1-3)Gal(b1-4)GlcNAc(b1-3)[Gal(b1-4)GlcNAc(b1-3)Gal(b1-4)GlcNAc(b1-6)]GalNAc
# Summary of the method: as §1
# [23] = target: Gal(b1-4)GlcNAc(b1-3)Gal(b1-4)GlcNAc(b1-6)[Gal(b1-3)]GalNAc
# Summary of the method: as §1
binder,measurement,setting,value
B1,glycan array binding signal (z-score),[1],-0.357
same,glycan array binding signal (z-score),[2],-0.134
same,glycan array binding signal (z-score),[3],-0.242
same,glycan array binding signal (z-score),[4],-0.13
same,glycan array binding signal (z-score),[5],-0.456
same,glycan array binding signal (z-score),[6],3.98
same,glycan array binding signal (z-score),[7],0.897
same,glycan array binding signal (z-score),[8],0.517
same,glycan array binding signal (z-score),[9],0.707
same,glycan array binding signal (z-score),[10],0.457
same,glycan array binding signal (z-score),[11],6.89
same,glycan array binding signal (z-score),[12],0.266
same,glycan array binding signal (z-score),[13],1.24
same,glycan array binding signal (z-score),[14],2.13
same,glycan array binding signal (z-score),[15],-0.076
same,glycan array binding signal (z-score),[16],0.38
same,glycan array binding signal (z-score),[17],-0.271
same,glycan array binding signal (z-score),[18],0.243
same,glycan array binding signal (z-score),[19],0.763
same,glycan array binding signal (z-score),[20],2.39
same,glycan array binding signal (z-score),[21],0.969
same,glycan array binding signal (z-score),[22],1.04
same,glycan array binding signal (z-score),[23],1.71

# Shown as tab-separated lines: entries from further up.
binder	measurement	setting	value
B1	glycan array binding signal (z-score)	[7]	0.897
same	glycan array binding signal (z-score)	[11]	6.89
